# Source: article PMC3342958, “IDN2 and Its Paralogs Form a Complex Required for RNA–Directed DNA Methylation”
# T1: IDN2-6xMyc (Arabidopsis thaliana) (UniProt Q8VZ79)
# T1 sequence: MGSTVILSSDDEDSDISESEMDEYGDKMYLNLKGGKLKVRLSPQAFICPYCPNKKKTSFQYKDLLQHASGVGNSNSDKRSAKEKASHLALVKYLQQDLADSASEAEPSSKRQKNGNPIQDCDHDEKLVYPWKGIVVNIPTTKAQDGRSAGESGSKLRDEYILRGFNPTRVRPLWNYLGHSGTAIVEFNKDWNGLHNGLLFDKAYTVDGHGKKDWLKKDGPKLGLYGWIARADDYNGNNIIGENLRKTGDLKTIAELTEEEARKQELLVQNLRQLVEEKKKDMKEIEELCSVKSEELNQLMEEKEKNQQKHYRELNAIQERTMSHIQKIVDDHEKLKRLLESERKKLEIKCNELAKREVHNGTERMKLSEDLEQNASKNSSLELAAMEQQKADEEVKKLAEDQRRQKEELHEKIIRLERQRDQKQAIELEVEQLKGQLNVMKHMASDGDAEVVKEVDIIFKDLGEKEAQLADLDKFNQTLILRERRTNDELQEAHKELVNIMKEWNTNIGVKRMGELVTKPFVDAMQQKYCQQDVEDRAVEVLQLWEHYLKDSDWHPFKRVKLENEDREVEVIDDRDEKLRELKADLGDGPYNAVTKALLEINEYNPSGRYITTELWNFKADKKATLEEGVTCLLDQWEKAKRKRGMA
# T2: IDN2W616A-6xMyc (Arabidopsis thaliana) (UniProt Q8VZ79)
# T2 sequence: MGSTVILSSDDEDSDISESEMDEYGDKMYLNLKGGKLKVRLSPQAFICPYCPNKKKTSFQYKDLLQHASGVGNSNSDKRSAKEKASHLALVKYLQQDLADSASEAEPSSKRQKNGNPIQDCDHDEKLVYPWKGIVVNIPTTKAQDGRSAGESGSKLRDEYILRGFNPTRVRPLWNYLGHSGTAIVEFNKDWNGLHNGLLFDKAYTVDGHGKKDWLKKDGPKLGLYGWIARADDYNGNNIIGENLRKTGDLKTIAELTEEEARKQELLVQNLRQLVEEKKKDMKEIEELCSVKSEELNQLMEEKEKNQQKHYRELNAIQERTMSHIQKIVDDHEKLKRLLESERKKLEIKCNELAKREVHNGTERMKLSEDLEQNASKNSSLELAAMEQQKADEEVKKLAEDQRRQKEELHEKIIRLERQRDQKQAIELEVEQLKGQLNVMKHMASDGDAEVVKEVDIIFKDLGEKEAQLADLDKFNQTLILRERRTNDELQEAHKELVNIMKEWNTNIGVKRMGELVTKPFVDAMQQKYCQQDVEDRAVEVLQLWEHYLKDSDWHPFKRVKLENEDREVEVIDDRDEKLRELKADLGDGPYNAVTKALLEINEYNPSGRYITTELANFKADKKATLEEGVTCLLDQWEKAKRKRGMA
# T3: IDP1-3xFlag (Arabidopsis thaliana) (UniProt Q9S9P3)
# T3 sequence: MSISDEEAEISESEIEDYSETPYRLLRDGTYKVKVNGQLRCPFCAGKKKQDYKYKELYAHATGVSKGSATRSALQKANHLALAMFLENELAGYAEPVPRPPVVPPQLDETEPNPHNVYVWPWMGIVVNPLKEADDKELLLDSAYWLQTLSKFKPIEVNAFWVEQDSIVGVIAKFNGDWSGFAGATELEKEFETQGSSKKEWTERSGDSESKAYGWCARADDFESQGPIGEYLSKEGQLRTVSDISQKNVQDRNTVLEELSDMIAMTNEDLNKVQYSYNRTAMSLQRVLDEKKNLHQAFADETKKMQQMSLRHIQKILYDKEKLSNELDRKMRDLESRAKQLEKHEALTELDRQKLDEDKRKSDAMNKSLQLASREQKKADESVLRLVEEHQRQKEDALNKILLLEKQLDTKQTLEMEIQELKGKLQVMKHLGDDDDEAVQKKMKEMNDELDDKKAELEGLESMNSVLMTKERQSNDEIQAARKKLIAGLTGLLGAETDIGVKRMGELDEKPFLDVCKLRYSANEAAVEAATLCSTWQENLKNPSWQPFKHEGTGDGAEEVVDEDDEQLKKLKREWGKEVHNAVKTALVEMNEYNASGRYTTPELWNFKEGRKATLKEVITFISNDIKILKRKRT
# Assays:
# [1] = biological target: T1, IDN2-6xMyc (Arabidopsis thaliana); assay: affinity purification with mass spectrometry; extracts of IDN2-6xMyc (wild-type or mutated) transgenic plants on Anti-c-Myc Agarose, 4°C 2.5 h, lysis buffer 50 mM Tris pH 7.6, 150 mM NaCl, 5 mM MgCl2, 10% glycerol, 0.1% NP-40; eluted with 0.1 M ammonium hydroxide; SDS-PAGE, silver staining, total proteins or the ∼80-KDa band analysed by LTQ mass spectrometry
# [2] = biological target: T2, IDN2W616A-6xMyc (Arabidopsis thaliana); assay: as above
# [3] = biological target: T1, IDN2-6xMyc (Arabidopsis thaliana); assay: as above; remark: listed apart in the source
# [4] = biological target: T3, IDP1-3xFlag (Arabidopsis thaliana); assay: affinity purification with mass spectrometry; extracts of IDP1-3xFlag transgenic plants (wild-type background) on Anti-Flag M1 Agarose, 4°C 2.5 h, eluted with 3xFlag peptide; total purified proteins analysed by mass spectrometry
binding [1],binding [2],binding [3],binding [4],Molecule
no binding,–,–,–,"At4g01780, endogenous"
–,binds,binds,–,"IDP1 (IDN2 PARALOG 1), endogenous (protein, UniProt Q9S9P3 1-634) MSISDEEAEISESEIEDYSETPYRLLRDGTYKVKVNGQLRCPFCAGKKKQDYKYKELYAHATGVSKGSATRSALQKANHLALAMFLENELAGYAEPVPRPPVVPPQLDETEPNPHNVYVWPWMGIVVNPLKEADDKELLLDSAYWLQTLSKFKPIEVNAFWVEQDSIVGVIAKFNGDWSGFAGATELEKEFETQGSSKKEWTERSGDSESKAYGWCARADDFESQGPIGEYLSKEGQLRTVSDISQKNVQDRNTVLEELSDMIAMTNEDLNKVQYSYNRTAMSLQRVLDEKKNLHQAFADETKKMQQMSLRHIQKILYDKEKLSNELDRKMRDLESRAKQLEKHEALTELDRQKLDEDKRKSDAMNKSLQLASREQKKADESVLRLVEEHQRQKEDALNKILLLEKQLDTKQTLEMEIQELKGKLQVMKHLGDDDDEAVQKKMKEMNDELDDKKAELEGLESMNSVLMTKERQSNDEIQAARKKLIAGLTGLLGAETDIGVKRMGELDEKPFLDVCKLRYSANEAAVEAATLCSTWQENLKNPSWQPFKHEGTGDGAEEVVDEDDEQLKKLKREWGKEVHNAVKTALVEMNEYNASGRYTTPELWNFKEGRKATLKEVITFISNDIKILKRKRT"
–,–,binds,binds,"IDN2, endogenous (protein, UniProt Q8VZ79 1-647) MGSTVILSSDDEDSDISESEMDEYGDKMYLNLKGGKLKVRLSPQAFICPYCPNKKKTSFQYKDLLQHASGVGNSNSDKRSAKEKASHLALVKYLQQDLADSASEAEPSSKRQKNGNPIQDCDHDEKLVYPWKGIVVNIPTTKAQDGRSAGESGSKLRDEYILRGFNPTRVRPLWNYLGHSGTAIVEFNKDWNGLHNGLLFDKAYTVDGHGKKDWLKKDGPKLGLYGWIARADDYNGNNIIGENLRKTGDLKTIAELTEEEARKQELLVQNLRQLVEEKKKDMKEIEELCSVKSEELNQLMEEKEKNQQKHYRELNAIQERTMSHIQKIVDDHEKLKRLLESERKKLEIKCNELAKREVHNGTERMKLSEDLEQNASKNSSLELAAMEQQKADEEVKKLAEDQRRQKEELHEKIIRLERQRDQKQAIELEVEQLKGQLNVMKHMASDGDAEVVKEVDIIFKDLGEKEAQLADLDKFNQTLILRERRTNDELQEAHKELVNIMKEWNTNIGVKRMGELVTKPFVDAMQQKYCQQDVEDRAVEVLQLWEHYLKDSDWHPFKRVKLENEDREVEVIDDRDEKLRELKADLGDGPYNAVTKALLEINEYNPSGRYITTELWNFKADKKATLEEGVTCLLDQWEKAKRKRGMA"
–,–,no binding,–,"At3g12550, endogenous (protein, UniProt Q9LHB1 1-638) MNNKLSDFEKNLYKKLKSGKLEVKVSYRTFLCPYCPDNKKKVGLYVDILQHASGVGNSQSKKRSLTEKASHRALAKYLIKDLAHYATSTISKRLKARTSFIPAETGDAPIIYDDAQFEKLVWPWKGVLVNIPTTSTEDGRSCTGESGPKLKDELIRRGFNPIRVRTVWDRFGHSGTGIVEFNRDWNGLQDALVFKKAYEGDGHGKKDWLCGATDSSLYAWLANADDYYRANILGENLRKMGDLKSIYRFAEEEARKDQKLLQRLNFMVENKQYRLKKLQIKYSQDSVKLKYETEEKEKILRAYSEDLTGRQQKSTDHFNRIFADHEKQKVQLESQIKELEIRKLELAKREAENETQRKIVAKELEQNAAINSYVQLSALEQQKTREKAQRLAVDHKMQKEKLHKRIAALERQLDQKQELELEVQQLKSQLSVMRLVELDSGSEIVNKVETFLRDLSETEGELAHLNQFNQDLVVQERKSNDELQEARRALISNLRDMGLHIGVKRMGELDTKPFMKAMRIKYCQEDLEDWAVEVIQLWEEYLKDPDWHPFKRIKLETAETIVEVIDEDDEKLRTLKNELGDDAYQAVANALLEINEYNPSGRYISSELWNFREDRKATLEEGVNSLLEQWNQAKHLKS"
–,binds,binds,–,"IDP2 (IDN2 PARALOG 2), endogenous (protein, UniProt F4JH53 1-635) MDISDEESEISESEIEEYSKTPYHLLRSETYYKVKVNGRLRCPFCVGKKKQDYKYKELHAHATGVSKGSATRSALQKSNHLALAKFLENDLAGYAEPLPRPPVVPPLLDETEPNPHNVYVWPWMGIVVNPLKETDDKELLLDSVYWLQTLSKFKPVEVNAFWVEQDSIVGVIAKFDSDWSGFAAATELEKEFETQGSCKKEWTERSGDSESKAYGWCARADDFQSQGPIGEYLSKEGTLRTVSDILQNNVQDRNTLLDVLSNMIDMTNEDLNKAQHSYNRTAMSLQRVLDEKKNLHQAFAEETKKMQQMSLRHIQRILYDKEKLRNELDRKMRDLESRAKQLEKHEALTELERQKLDEDKRKSDAMNKSLQLASREQKKADESVLRLVEEHQRQKEDALNKILLLEKQLDTKQTLEMEIQELKGKLQVMKHLGDDDDEAVQTKMKEMNDELDDKKAELEDLESMNSVLMTKERQSNDEIQAARQKMIAGLTGLLGAESDIGVKRMGELDEKPFLDVCKLRYSANEARVEAATLCSTWKENLKNPSWQPFKREGTGDGAEEVVDEDDEQLKKLKREWGKEVHNAVKAALVEMNEYNASGRYPTSELWNFKEGRKATLKEVITFISTDIKNLKRKRT"

# Like-named read-outs stand apart in the source and are kept apart here. Results are given in words; binding and its absence hold for the method and conditions named. Binding seen in cells or lysates may run through a third protein. Here binding means that the protein was enriched with, or labelled near, the bait; the list need not be complete. For some assays here: A no says only that the protein was not detected with the bait. Tags and fused reporters may be left off the sequences shown.
